Measured values: the supplement of paper PMC3334620
In all, about 33,000 sequences were measured (“E-score (-0.5 to 0.5)”: median about -0.015, highest 2% from about 0.3 on). This is one part of the list.

What follows are sequences tested against T1, Abf1 (UniProt P14164) (assay: PBM E-score (8-mer binding enrichment) (E-score (-0.5 to 0.5)); higher = stronger / more preferred TF binding). Details: protein concentration: 200 nM; construct: GST-full length.
T1 sequence: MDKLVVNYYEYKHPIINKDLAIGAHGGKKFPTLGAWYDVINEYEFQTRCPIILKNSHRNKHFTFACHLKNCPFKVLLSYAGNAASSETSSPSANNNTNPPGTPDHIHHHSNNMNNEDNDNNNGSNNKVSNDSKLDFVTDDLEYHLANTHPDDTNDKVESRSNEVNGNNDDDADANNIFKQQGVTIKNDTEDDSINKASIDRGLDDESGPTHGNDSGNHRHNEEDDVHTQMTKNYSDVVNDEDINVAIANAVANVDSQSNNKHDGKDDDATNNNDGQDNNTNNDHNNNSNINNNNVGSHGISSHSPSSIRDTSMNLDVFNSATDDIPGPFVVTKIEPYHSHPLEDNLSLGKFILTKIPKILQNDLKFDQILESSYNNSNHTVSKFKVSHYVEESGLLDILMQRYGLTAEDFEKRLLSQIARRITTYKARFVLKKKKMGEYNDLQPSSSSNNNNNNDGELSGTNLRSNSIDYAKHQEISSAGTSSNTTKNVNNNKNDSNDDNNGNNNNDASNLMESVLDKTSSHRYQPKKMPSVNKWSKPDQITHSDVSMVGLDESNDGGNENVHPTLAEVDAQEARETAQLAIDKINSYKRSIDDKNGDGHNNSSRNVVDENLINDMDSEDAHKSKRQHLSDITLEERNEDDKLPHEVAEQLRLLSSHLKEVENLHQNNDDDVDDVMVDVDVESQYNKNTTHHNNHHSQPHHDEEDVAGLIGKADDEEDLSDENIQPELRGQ
In short: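 Masliner-normalised scans of fluorescent anti-GST signal were the basis for scoring. That signal came from GST-tagged yeast transcription factors applied at about 100-200 nM to double-stranded universal all-10-mer Agilent arrays on fresh or once-stripped slides. Each ungapped eight-base word, pooled with its reverse complement, received an E-score from the Universal PBM Analysis Suite.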

Sequence	PBM E-score
GCGAGAGA	-0.155
CGTTAGAG	0.104
ATGTGGTA	0.0111
GCTATCCA	0.00713
ACATGCGA	0.123
GCGGCAAC	0.0759
GGCGAGGA	-0.186
AGGATAGG	-0.183
GAGTTATA	0.0665
TCGTCAGA	0.125
GCCATACC	-0.367
CGGACTAG	-0.328
CCCTTTTA	-0.067
GAGCTTGC	-0.202
ACAATTGG	-0.125
AACATTTC	-0.031
AAGTAGCC	-0.0764
GACGTGGA	0.0164
AGAGAGAC	-0.152
GCGAATTA	0.131
CTTGCGTC	-0.0741
TAAAAGGA	0.0454
GGTAATCA	0.16
CCGACTCC	-0.176
CCAAGCGC	0.149

Sequence	PBM E-score
AAAGAAGC	0.0334
CCTCCTTC	-0.337
AGTTTACA	-0.0916
AAATCCAT	0.0895
AGCTACAG	-0.173
ATGTGAAT	0.0305
ACAGCGCA	-0.101
ATCCGGCG	0.0064
ATACGGAT	0.297
GGACTGCC	-0.249
ATTAGCAC	-0.0543
CCGACCGA	-0.109
CTACCCCC	-0.358
GAGCCGCA	-0.0431
GAATCTGC	-0.234
TCGCGGAA	0.0001
AGGTACCG	0.0478
CGAATTGC	-0.045
GGACTATA	-0.0253
TAGTCTGA	0.0194
AGCGGAGC	-0.207
GGGCGTTA	-0.0753
GTCCGACA	0.0611
CGGACACC	-0.117
GTCCCATA	0.117

Sequence	PBM E-score
CAGGAGGG	-0.248
GGCAAATA	-0.0106
CATCGGGA	0.0994
ATGATTTA	0.296
ACACCGAC	-0.134
CGTCCACA	0.0748
CTCTCATC	0.0174
CCCGGATA	-0.0473
CCGCCGCA	-0.191
CGGATCAA	-0.138
ACGGGTTC	0.0362
ACCCTAAT	-0.122
AAGATGTA	0.109
CATAATTA	0.211
CTCCGAGC	-0.129
TAAGACAA	0.12
GGCTCTAC	-0.187
ATCGACGG	0.287
GACCCTCC	-0.204
TCAACGCA	-0.00848
GGAACACC	-0.0556
AGAACTAA	-0.0469
GCAACCAA	-0.0617
CTTCCCAC	-0.101
CCATTCGA	-0.0663

Sequence	PBM E-score
CGTAGAGC	-0.0212
GACGGTGA	0.219
GGGCTGAA	0.0408
ATCGATTC	0.185
CGTTGCCA	0.0207
CGTGGACC	0.026
AGTTTTTC	0.0708
AACGCAGA	-0.102
ATCGGCTG	-0.0528
CACACACG	0.212
AGAGATAA	0.00936
CAGCGAAC	0.0423
GGAGGCAA	-0.107
AGGTCGAG	-0.0481
GTGTCCCA	0.142
ATCAGGGG	-0.251
AGAAGGGC	-0.148
GGCACATA	0.0843
GCGCAATA	-0.0465
ACGTCGCA	0.167
ACTGGGCA	-0.0699
GTAATATA	0.24
CGGGCACG	-0.0385
AACCTTCT	-0.0917
CCGCTAGG	-0.292

Sequence	PBM E-score
CACCACAA	0.0473
GTATGCTA	0.1
AATTTCAA	0.0683
ACAAACCT	-0.0688
CTCGTAAC	0.186
GTAAGAAC	0.162
ATATAAGG	0.0168
TATCACGA	0.366
CCATCAGG	-0.303
CTCTCGTC	0.011
CGCACATC	-0.113
GAAGTGCC	-0.0745
AAGGAACA	-0.0655
AATGGCCG	-0.0244
ATATCGTG	0.318
ATTCGGCC	-0.0888
GTCATCCA	0.2
GGGATTAC	-0.17
ACTTTCCA	0.132
CATTTAGA	-0.0182
CTCAGAGA	-0.0765
TGGTTAAA	0.013
TATGCATA	0.0797
AGGACCCT	-0.208
CGTAAAAA	0.279

Sequence	PBM E-score
AGACACAA	-0.00046
ATGCTTTG	-0.0227
GTGAATAA	0.176
ACCTTTCT	0.0863
CTTGTGCC	-0.245
ATAAATGC	0.11
CCTCTACC	-0.146
ATAATTAT	0.303
ATCAACCG	-0.121
CCCCAGGC	-0.329
ATTGTATC	0.0583
ACAGAGGG	-0.00778
ACACTGCC	0.0273
ATTGGGAC	-0.068
CTCACGGA	0.103
AGATATAG	0.0509
AGGTCTAG	-0.075
CATAGCAG	-0.126
GGTCGACA	-0.106
ACGCGAGT	0.097
TGTCTGAA	-0.0515
ACGAGCTC	0.197
GATACCAC	0.0488
CACAAGAA	0.0501
GGGATACC	-0.0496

A stretch taken from the entries so far:
Sequence	PBM E-score
GGCGAGGA	-0.186
AGGATAGG	-0.183
GAGTTATA	0.0665
TCGTCAGA	0.125
GCCATACC	-0.367
CGGACTAG	-0.328
CCCTTTTA	-0.067
GAGCTTGC	-0.202
ACAATTGG	-0.125
AACATTTC	-0.031
AAGTAGCC	-0.0764
GACGTGGA	0.0164
AGAGAGAC	-0.152
GCGAATTA	0.131
CTTGCGTC	-0.0741
TAAAAGGA	0.0454
GGTAATCA	0.16
CCGACTCC	-0.176
CCAAGCGC	0.149
AAAGAAGC	0.0334
CCTCCTTC	-0.337
AGTTTACA	-0.0916
AAATCCAT	0.0895
AGCTACAG	-0.173
ATGTGAAT	0.0305
ACAGCGCA	-0.101
ATCCGGCG	0.0064
ATACGGAT	0.297
GGACTGCC	-0.249
ATTAGCAC	-0.0543
CCGACCGA	-0.109
CTACCCCC	-0.358
GAGCCGCA	-0.0431
GAATCTGC	-0.234
TCGCGGAA	0.0001
AGGTACCG	0.0478
CGAATTGC	-0.045
GGACTATA	-0.0253
TAGTCTGA	0.0194
AGCGGAGC	-0.207
GGGCGTTA	-0.0753
GTCCGACA	0.0611
CGGACACC	-0.117
GTCCCATA	0.117
CAGGAGGG	-0.248
GGCAAATA	-0.0106
CATCGGGA	0.0994

The listing continues:

Sequence	PBM E-score
ATAGTGTA	0.0594
AGGATGGG	-0.128
AAGCTTCT	-0.0925
AGTTTTCA	0.00364
AAGCAAAC	0.00899
AACATTGC	-0.141
CCTCCCCA	-0.203
AGTAACCG	0.0501
CGTTGGAA	0.206
CAATGAAA	0.0231
AACTCAGC	-0.0983
CGTAGGGA	0.148
ACGGACAG	0.0439
ACCATTCC	-0.039
AACGTACC	0.185
AAAGAACG	0.00276
CTTTGTAA	0.194
AGCAAGGG	-0.0657
GAGCCGGA	-0.147
TGTCCTAA	0.166
AAATACCA	-8e-05
GAAGCTAC	-0.119
